Measurements: US8173771B2, “Humanin receptor or humanin-like polypeptide receptor” (Keio Univeristy, priority 2005, dated 2012)
Not every detail of the peptide structures is certain; ends, links or a residue may be inferred.

Biological target: T1, gp130 (UniProt O70394+O88507+P40189)
T1 construct: constructed by inserting a full-length gp130 into a SwaI site of pAxCAwt (TaKaRa); expressed in transfected cells; host or cells: mouse primary cortical neurons infected with adenovirus
T1 sequence (P40189 23-918): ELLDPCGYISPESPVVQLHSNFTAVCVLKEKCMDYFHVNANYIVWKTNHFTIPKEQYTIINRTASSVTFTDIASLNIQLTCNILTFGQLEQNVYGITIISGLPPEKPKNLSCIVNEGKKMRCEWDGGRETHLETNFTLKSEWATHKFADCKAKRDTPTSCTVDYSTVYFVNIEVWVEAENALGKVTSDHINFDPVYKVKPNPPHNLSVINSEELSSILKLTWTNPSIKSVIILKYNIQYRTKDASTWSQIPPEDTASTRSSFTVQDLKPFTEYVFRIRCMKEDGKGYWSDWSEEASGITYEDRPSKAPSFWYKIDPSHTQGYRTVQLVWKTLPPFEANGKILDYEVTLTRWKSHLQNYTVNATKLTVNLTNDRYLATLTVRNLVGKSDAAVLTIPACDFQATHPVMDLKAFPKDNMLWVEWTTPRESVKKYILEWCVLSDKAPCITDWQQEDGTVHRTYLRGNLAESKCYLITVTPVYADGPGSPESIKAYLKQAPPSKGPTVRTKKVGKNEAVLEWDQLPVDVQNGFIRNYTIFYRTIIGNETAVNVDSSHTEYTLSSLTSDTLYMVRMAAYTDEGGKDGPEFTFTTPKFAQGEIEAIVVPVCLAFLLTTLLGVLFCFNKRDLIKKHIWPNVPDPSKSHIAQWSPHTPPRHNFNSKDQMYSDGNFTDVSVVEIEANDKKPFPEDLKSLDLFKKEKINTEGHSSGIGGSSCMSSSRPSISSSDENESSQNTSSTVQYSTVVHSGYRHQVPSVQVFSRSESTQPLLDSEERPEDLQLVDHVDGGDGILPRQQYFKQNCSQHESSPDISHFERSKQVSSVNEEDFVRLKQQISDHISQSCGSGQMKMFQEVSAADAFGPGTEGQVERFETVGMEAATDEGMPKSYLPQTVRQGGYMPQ
T1 sequence (O70394 25-623): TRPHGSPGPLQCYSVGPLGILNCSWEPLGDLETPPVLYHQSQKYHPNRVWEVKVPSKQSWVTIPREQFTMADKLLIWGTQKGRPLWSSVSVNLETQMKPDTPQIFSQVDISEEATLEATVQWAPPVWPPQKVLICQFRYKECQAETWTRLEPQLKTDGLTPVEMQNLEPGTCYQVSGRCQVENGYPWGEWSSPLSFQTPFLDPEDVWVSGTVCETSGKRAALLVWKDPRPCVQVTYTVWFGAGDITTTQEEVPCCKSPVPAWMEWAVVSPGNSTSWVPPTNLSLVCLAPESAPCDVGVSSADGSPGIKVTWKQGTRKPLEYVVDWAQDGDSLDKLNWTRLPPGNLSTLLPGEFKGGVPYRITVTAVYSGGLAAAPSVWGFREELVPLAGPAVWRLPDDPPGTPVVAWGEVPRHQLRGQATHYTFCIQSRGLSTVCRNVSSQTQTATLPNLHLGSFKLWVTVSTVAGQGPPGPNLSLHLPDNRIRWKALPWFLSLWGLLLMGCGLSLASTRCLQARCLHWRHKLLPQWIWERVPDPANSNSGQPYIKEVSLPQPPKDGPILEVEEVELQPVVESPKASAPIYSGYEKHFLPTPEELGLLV
T1 sequence (O88507 23-342 limits assumed): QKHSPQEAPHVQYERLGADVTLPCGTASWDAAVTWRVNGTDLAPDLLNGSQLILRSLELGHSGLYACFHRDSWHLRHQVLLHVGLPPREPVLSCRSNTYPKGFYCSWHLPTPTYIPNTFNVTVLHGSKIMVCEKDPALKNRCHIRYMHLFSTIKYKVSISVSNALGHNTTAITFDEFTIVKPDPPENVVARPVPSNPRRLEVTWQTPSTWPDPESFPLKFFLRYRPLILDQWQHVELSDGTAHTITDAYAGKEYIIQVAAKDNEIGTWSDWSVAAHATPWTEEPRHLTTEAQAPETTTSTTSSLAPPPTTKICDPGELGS
Test: Tyrosine phosphorylation of gp130 in PCNs infected with human gp130 adenovirus (immunoprecipitation/immunoblot)
Format: cell-based
Conditions: 15 min

CC[C@H](C)[C@H](NC(=O)[C@H](CCC(=O)O)NC(=O)[C@H](CO)NC(=O)[C@@H](NC(=O)[C@H](CC(C)C)NC(=O)[C@H](CC(C)C)NC(=O)[C@H](CC(C)C)NC(=O)[C@H](CC(C)C)NC(=O)[C@H](CS)NC(=O)[C@H](CO)NC(=O)[C@H](Cc1ccccc1)NC(=O)CNC(=O)[C@H](CCCNC(=N)N)NC(=O)[C@@H]1CCCN1C(=O)[C@H](C)NC(=O)[C@@H](N)CCSC)[C@@H](C)O)C(=O)N[C@@H](CC(=O)O)C(=O)N[C@@H](CC(C)C)C(=O)N1CCC[C@H]1C(=O)N[C@H](C(=O)N[C@@H](CCCCN)C(=O)N[C@@H](CCCNC(=N)N)C(=O)N[C@@H](CCCNC(=N)N)C(=O)N[C@@H](C)C(=O)O)C(C)C [HN, Humanin]
phosphorylation level of gp130: increased
